Test results taken from publication PMC12714281.
No constants are given. Whether binding was seen depends on the method and setting. Binding seen in cells or lysates may run through a third protein. A yes stands for co-enrichment or nearness to the bait. Other partners may have been found. Tags and fused reporters may be left off the sequences shown.

By UniProt entry, the sequences of proteins in these tests, tags left out. Residues count along the entry.
UniProt P04114, residues 28-4563: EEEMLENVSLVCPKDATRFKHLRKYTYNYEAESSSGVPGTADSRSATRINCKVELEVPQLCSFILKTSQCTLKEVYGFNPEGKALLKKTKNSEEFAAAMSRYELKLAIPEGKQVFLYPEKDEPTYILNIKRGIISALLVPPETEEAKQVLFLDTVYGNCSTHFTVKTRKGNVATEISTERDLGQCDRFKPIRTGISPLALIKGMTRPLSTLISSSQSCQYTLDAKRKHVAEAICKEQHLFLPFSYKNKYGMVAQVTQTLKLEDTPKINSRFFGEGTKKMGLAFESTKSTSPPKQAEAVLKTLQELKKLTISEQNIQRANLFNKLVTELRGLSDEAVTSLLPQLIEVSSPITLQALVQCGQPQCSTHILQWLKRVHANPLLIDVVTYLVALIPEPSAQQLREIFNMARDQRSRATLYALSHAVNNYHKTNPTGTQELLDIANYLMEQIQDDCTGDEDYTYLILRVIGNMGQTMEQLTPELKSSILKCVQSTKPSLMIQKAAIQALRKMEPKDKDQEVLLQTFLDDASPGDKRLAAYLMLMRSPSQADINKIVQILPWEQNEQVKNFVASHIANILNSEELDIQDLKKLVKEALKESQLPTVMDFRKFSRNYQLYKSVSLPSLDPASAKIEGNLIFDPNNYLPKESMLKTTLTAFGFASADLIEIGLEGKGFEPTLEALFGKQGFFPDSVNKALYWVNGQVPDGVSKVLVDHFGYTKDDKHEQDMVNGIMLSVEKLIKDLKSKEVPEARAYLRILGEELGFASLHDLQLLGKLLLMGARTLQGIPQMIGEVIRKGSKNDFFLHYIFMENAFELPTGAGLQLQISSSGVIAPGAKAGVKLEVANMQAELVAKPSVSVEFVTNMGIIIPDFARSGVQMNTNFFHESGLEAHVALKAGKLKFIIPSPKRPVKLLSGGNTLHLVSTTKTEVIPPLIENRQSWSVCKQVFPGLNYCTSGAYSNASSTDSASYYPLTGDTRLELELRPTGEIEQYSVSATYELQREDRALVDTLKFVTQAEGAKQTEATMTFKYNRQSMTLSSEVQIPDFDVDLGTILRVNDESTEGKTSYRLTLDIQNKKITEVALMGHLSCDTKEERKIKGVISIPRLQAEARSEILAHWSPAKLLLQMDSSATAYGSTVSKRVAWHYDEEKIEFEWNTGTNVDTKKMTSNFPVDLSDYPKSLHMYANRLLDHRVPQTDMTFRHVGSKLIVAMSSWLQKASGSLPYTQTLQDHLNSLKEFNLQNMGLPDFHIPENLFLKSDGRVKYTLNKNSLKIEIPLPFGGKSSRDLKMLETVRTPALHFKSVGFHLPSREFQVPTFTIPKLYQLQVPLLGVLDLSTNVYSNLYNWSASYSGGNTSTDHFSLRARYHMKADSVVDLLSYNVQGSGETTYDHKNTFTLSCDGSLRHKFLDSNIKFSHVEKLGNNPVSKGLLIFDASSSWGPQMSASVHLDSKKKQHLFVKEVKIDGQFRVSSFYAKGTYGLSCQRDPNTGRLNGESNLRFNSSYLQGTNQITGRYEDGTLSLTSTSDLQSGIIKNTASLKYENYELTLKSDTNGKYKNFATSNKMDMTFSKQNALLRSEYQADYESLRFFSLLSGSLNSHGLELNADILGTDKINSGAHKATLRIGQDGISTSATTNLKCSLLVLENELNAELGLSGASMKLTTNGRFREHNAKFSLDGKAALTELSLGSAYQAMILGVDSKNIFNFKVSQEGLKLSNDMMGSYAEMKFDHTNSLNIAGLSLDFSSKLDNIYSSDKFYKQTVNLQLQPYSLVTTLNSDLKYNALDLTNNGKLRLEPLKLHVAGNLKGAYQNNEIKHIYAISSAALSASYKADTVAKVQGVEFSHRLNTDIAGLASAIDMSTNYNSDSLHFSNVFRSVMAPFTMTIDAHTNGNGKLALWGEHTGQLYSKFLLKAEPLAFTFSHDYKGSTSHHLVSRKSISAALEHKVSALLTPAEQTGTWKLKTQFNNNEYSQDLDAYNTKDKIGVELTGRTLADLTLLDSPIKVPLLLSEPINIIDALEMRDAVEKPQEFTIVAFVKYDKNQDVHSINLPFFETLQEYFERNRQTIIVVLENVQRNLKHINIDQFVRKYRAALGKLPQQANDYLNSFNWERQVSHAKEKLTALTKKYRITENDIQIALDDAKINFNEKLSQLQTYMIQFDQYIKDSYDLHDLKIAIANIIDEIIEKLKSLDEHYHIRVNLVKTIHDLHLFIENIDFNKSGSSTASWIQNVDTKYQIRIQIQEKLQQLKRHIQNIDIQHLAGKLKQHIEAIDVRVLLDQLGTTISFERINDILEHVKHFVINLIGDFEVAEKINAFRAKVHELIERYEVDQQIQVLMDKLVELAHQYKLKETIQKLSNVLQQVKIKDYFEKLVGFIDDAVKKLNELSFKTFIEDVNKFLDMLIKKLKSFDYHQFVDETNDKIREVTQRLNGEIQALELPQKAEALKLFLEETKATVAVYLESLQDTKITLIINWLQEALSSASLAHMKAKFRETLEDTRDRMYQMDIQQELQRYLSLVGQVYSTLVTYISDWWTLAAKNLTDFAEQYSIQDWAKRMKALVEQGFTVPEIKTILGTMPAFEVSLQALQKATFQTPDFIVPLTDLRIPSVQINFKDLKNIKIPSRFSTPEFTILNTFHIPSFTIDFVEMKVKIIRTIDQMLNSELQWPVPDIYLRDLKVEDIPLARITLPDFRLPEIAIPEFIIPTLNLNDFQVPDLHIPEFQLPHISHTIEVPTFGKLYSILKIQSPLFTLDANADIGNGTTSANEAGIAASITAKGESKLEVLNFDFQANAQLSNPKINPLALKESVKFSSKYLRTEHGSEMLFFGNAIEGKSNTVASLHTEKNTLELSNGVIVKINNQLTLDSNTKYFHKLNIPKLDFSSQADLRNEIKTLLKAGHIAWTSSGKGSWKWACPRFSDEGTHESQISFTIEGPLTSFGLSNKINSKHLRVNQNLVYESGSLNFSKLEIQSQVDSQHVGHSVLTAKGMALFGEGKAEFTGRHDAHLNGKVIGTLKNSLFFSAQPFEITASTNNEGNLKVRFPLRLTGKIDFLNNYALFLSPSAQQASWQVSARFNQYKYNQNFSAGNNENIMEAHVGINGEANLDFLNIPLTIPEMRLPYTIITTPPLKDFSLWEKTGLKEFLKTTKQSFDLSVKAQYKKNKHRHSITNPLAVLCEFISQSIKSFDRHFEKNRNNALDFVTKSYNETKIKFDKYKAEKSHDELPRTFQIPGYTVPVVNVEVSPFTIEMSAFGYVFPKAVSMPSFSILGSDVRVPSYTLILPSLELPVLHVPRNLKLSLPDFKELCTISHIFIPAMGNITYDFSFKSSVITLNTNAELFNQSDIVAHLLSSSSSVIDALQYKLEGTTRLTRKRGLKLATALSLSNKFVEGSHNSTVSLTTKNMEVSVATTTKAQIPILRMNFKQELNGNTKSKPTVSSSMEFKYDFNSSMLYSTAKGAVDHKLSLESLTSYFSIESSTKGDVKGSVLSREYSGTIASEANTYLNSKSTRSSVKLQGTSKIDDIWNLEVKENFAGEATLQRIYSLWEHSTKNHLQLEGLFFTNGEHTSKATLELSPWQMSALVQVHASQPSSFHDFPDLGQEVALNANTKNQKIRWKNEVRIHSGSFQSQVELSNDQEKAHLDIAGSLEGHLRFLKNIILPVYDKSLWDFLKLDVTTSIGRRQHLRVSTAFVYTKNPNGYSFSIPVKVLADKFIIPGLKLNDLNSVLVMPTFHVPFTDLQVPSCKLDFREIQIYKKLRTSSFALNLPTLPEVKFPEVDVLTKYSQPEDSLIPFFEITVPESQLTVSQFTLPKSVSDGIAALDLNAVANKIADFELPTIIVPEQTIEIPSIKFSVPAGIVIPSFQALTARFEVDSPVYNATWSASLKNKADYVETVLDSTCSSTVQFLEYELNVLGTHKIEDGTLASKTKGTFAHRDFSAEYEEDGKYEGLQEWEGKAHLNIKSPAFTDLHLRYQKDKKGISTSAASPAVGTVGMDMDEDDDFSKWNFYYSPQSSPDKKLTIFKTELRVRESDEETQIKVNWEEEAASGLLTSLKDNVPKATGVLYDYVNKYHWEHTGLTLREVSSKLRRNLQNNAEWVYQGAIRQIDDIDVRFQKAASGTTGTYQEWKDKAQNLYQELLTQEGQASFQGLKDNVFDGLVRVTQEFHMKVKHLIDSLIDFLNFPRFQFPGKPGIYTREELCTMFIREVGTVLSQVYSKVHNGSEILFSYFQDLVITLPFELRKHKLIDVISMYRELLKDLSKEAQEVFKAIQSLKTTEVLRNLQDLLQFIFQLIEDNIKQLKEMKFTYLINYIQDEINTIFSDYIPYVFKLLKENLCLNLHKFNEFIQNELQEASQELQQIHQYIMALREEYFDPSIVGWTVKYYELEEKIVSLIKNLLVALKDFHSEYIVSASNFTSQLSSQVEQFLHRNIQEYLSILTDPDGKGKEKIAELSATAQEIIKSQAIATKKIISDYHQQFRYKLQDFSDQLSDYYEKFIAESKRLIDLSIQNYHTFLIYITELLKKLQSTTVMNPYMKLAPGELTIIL
UniProt Q03135: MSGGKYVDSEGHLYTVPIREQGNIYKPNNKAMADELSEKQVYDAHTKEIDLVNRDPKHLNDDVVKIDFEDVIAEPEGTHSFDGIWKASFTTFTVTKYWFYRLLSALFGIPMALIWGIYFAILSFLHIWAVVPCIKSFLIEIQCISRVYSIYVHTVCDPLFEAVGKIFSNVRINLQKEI
UniProt P48679, residues 1-647: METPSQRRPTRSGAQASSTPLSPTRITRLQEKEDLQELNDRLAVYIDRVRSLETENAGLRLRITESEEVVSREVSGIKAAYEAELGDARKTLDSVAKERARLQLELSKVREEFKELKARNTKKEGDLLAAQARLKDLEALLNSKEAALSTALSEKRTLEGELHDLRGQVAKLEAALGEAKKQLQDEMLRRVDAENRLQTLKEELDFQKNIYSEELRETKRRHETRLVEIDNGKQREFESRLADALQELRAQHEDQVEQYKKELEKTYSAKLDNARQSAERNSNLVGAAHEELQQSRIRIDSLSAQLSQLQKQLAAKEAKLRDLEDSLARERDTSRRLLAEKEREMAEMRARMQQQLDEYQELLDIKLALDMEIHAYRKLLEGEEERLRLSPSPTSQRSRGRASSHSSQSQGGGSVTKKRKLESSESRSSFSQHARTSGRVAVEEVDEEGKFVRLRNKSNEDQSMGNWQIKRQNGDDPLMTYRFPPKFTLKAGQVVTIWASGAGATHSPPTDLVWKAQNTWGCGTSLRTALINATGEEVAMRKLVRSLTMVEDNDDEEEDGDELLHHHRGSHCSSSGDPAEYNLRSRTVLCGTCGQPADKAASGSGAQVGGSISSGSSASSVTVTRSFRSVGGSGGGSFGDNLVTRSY
UniProt P11507: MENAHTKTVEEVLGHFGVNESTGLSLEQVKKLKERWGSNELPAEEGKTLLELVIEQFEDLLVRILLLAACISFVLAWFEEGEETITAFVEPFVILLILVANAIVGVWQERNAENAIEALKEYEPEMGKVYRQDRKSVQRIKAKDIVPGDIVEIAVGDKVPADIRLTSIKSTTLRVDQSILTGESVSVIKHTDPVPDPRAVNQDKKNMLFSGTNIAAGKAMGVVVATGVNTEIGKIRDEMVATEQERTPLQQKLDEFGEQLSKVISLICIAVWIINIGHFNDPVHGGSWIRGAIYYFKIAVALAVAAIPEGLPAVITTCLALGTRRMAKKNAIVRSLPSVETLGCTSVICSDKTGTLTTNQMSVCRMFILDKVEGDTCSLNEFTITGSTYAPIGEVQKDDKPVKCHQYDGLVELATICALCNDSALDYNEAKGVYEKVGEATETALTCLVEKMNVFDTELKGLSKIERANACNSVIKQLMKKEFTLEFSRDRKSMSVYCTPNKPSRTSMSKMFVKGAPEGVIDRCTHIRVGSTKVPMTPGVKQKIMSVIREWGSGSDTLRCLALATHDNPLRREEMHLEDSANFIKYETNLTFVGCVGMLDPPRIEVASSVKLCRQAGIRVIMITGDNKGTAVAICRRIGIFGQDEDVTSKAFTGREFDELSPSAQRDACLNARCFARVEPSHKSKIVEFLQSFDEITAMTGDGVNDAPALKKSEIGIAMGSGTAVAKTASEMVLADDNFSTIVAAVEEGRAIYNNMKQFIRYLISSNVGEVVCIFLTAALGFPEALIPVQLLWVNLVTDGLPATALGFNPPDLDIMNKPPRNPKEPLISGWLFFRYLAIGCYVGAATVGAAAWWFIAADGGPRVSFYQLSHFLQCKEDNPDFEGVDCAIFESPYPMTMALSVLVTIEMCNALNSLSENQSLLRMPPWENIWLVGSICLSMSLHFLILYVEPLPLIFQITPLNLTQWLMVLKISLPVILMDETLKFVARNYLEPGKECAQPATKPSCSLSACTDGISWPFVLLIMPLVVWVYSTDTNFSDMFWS

T1: HA-Flag-TMEM43 wild type (transmembrane protein 43), stably expressed in A549 cells (UniProt Q9BTV4)
T1 sequence: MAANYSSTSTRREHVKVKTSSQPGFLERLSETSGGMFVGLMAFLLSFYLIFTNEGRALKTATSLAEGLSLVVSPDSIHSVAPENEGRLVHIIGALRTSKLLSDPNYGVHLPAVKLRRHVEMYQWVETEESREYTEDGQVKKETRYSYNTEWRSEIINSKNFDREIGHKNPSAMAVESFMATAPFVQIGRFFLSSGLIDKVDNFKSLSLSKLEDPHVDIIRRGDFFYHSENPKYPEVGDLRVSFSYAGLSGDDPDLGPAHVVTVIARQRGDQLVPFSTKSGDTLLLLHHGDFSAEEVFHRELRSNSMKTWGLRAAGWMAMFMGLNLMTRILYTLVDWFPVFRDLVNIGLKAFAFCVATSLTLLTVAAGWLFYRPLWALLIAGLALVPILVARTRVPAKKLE

T2: 3xHA-Turbo-TMEM43 (TurboID fusion of wild-type TMEM43) (UniProt Q9BTV4)
T2 sequence: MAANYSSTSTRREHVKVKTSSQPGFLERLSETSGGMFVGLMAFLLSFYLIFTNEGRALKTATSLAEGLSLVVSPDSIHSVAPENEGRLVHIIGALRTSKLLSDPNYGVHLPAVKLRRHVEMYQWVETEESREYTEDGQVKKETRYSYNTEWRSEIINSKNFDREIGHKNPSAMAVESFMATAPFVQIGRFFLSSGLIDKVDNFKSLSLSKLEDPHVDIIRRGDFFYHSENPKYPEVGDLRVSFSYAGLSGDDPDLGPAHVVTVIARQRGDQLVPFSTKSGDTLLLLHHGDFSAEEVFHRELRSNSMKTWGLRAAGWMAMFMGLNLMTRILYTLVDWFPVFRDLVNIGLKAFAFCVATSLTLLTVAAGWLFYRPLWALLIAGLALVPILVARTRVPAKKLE

T3: 3xHA-Turbo-TMEM43 S358L (TurboID fusion of the TMEM43 S358L mutant) (UniProt Q9BTV4)
T3 sequence: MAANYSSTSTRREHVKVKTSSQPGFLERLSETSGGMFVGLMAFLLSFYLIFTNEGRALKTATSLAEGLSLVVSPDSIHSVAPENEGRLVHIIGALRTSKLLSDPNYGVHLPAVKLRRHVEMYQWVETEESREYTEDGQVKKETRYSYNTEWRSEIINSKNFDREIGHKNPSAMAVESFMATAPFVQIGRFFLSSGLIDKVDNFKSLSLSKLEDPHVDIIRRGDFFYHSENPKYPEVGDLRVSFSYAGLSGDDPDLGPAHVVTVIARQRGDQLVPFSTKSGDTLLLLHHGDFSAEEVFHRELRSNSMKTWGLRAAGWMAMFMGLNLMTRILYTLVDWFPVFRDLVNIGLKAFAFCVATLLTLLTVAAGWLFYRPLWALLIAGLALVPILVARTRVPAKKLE


Assays:
[1] = target: T1, HA-Flag-TMEM43 wild type (transmembrane protein 43), stably expressed in A549 cells; test: affinity purification with mass spectrometry; A549 cells stably expressing vector, HA-Flag-TMEM43 WT or S358L (triplicates); lysis in 150mM NaCl, 50mM Tris-HCl (pH 7.4), 1mM EDTA, 1% Triton X-100; anti-FLAG M2 gel, elution with 3XFlag peptide, then anti-HA gel; label-free quantitative LC-MS/MS
[2] = target: T2, 3xHA-Turbo-TMEM43 (TurboID fusion of wild-type TMEM43); test: proximity labelling; H9c2 cells transfected with 3xHA-Turbo-TMEM43 or its S358L mutant; 50μM biotin for 30 min; RIPA lysate on streptavidin magnetic beads; Western blotting of biotinylated proteins
[3] = target: T3, 3xHA-Turbo-TMEM43 S358L (TurboID fusion of the TMEM43 S358L mutant); test: as above

binding [1]	binding [2]	binding [3]	Molecule
binds	–	–	Apolipoprotein B (APOB), endogenous in A549 cells (from UniProt P04114 28-4563)
binds	–	–	Caveolin 1 (CAV1), endogenous in A549 cells (from UniProt Q03135 1-178)
–	binds	binds	Lamin A/C (LMNA), endogenous in H9c2 cells (from UniProt P48679 1-647)
–	binds	binds	Sarcoplasmic/Endoplasmic Reticulum Calcium ATPase 2 (SERCA2 or ATP2A2), endogenous in H9c2 cells (from UniProt P11507 1-1043)
binds	–	–	Voltage-dependent anion-selective channel protein 1 (VDAC1), endogenous in A549 cells (from UniProt P21796 1-283)
–	binds	binds	Emerin (EMD), endogenous in H9c2 cells (protein, UniProt Q63190 1-260) MDDYAVLSDTELAAVLRQYNIPHGPILGSTRKLYEKKIFEYETQRRRLSPPSSSSSSFSYRFSDLDSASVDSDMYDLPKKEDALLYQSKDYNDDYYEESYLTTRTYGEPESVGMSKSFRRPGTSLVDADDTFHHQVRDDIFSSSEEEGKDRERPIYGRDSAYQSIAEYRPISNVSRSSLGLSYYPRSSTSSVSSSSSSPSSWLTRRAIRPEKQAPTAALGQDRQVPLWGQLLLFLAFATFLLFVYYSIQAQEGNPFWMDP
